{
  "source": "PubChem BioAssay AID1347075",
  "about": "(National Center for Advancing Translational Sciences (NCATS), 2019)",
  "note": "Screen size: about 400,000 compounds; about 5,500 (1.4%) were called active. The inconclusive results got no clear call from the source; some entries with a clear call stand among them for comparison. Calls follow the shape of the dose curve; as a rule, active = well fitted cell-killing curve with a large enough effect; inconclusive = small, poorly fitted or top-dose-only effect, or effect the other way; inactive = flat fitted curve, though single readings scatter. A potency beside an inconclusive call is a rough fit, not a confirmed value.",
  "data": [
    {"test": "qHTS assay for MDR1-selective chemotherapeutics: Primary screen using the parental adenocarcinoma cell KB-3-1; also: nearly all actives have a fitted effect of over 60% in size; also: potency is read from the fitted curve at half-maximal effect; as to activity change, negative = cytotoxic: % is scaled to controls: 0 for no effect and ±100 for the full control effect", "conditions": "KB-3-1 viability, CellTiter-Glo ATP luminescence, 72 h; activity change, negative = cytotoxic: at 46.1 µM (top of the series)", "procedure,_shortened": "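Using CellTiter-Glo luminescence, growth of non-resistant KB-3-1 adenocarcinoma cells is assessed 72 h after pin-tool compound addition at 37 °C. Normalized responses across the concentration series yield fitted curves.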", "values": [
      {"compound": "CCOc1ccccc1NC(=S)N(Cc1cc2ccc(C)cc2[nH]c1=O)CC1CCCN1CC", "note": "(stereo unspecified)", "Potency": "active: 13 µM"},
      {"compound": "CCCCn1c(N)c(N(CCC(C)C)C(=O)C2CCCO2)c(=O)[nH]c1=O", "note": "(stereo unspecified)", "Potency": "inconclusive: 29.1 µM [rising, single point]"},
      {"compound": "Cc1cc(C)cc(OC(=O)C23CCC(C)(C(=O)O2)C3(C)C)c1", "note": "(stereo unspecified)", "Potency": "inactive"},
      {"compound": "O=C(Nc1ccc(F)cc1)C(=O)c1cn(CC(=O)N2CCOCC2)c2ccccc12", "Potency": "inconclusive: 20.6 µM [cytotoxic, single point]"},
      {"compound": "C=CCCC(=O)Nc1nc(C)c(-c2csc(Nc3ccccc3OC)n2)s1", "Potency": "active: 7.31 µM"},
      {"compound": "O=C(O)c1ccc(NC(=O)c2cn(-c3ccccc3)nc2-c2ccc(Cl)cc2)cc1", "Potency": "inconclusive: 20.6 µM [cytotoxic, single point]"},
      {"compound": "COc1ccc(S(=O)(=O)Nc2ccc(C)cc2)cc1N(C)S(=O)(=O)c1ccc(Cl)cc1", "Potency": "inconclusive: 23.1 µM [cytotoxic, single point]"},
      {"compound": "Cn1c(Cn2nnc3ccccc32)nnc1SCC(=O)N1c2ccccc2Sc2ccccc21", "Potency": "inactive"},
      {"compound": "COc1ccc(/C(C#N)=C/c2c(-c3ccc(Cl)cc3)nc3c(C)cccn23)cc1", "Potency": "inconclusive: 18.4 µM [cytotoxic, single point]"},
      {"compound": "CCOC(=O)C1CCN(C(=O)C(C)N(c2ccc(Oc3ccccc3)cc2)S(C)(=O)=O)CC1", "note": "(stereo unspecified)", "Potency": "inactive"},
      {"compound": "CN1CCN(Cc2ccc(Sc3ccc(Cl)cc3)c([N+](=O)[O-])c2)CC1", "Potency": "inconclusive: 25.9 µM [cytotoxic, single point]"},
      {"compound": "CCCCOc1ccc(S(=O)(=O)Nc2ccc(-c3ccc(N4CCCCCC4)nn3)cc2)cc1", "Potency": "inconclusive: 2.91 µM [cytotoxic, partial curve, poor fit]"},
      {"compound": "Fc1ccccc1N=C1NN=C(c2ccccc2)CS1", "Potency": "inconclusive: 18.4 µM [cytotoxic, single point]"},
      {"compound": "COC(=O)c1cccc(-n2c(CCC(=O)O)ccc2-c2ccc(OC)cc2)c1", "Potency": "inconclusive: 29.1 µM [cytotoxic, single point]"},
      {"compound": "O=C(C[C@H]1C[C@H](C(=O)N2CCCCC2)[C@@]2(CCc3ccccc3)c3[nH]c4ccc(Cl)cc4c3CCN2C1=O)NCCCn1ccnc1", "Potency": "inactive"},
      {"compound": "CCOc1ccc(C(=O)C2CCN(C(=O)c3ccc([N+](=O)[O-])cc3)CC2)cc1", "Potency": "inconclusive: 10.3 µM [cytotoxic, single point]"},
      {"compound": "Cc1cc(C=O)c(C)n1-c1ccc(NC2CCCC2)c([N+](=O)[O-])c1", "Potency": "inconclusive: 20.6 µM [cytotoxic, single point]"},
      {"compound": "Cc1ccc2nc(-c3cccc(Br)c3)c(Cc3ccccc3C(F)(F)F)n2c1", "Potency": "inactive"},
      {"compound": "COCCCNS(=O)(=O)c1ccc(OC)c(Cl)c1Cl", "Potency": "inconclusive: 0.82 µM [rising, partial curve]"},
      {"compound": "Cc1ccc(S(=O)(=O)N2CCCc3ccccc32)cc1", "Potency": "inconclusive: 29.1 µM [cytotoxic, single point]"},
      {"compound": "COCCCNC(=O)c1ccccc1N(Cc1ccccc1)S(=O)(=O)c1ccc(OC)cc1", "Potency": "inconclusive: 29.1 µM [cytotoxic, single point]"},
      {"compound": "COc1ccc(-c2nc3ccccc3s2)cc1NC(=O)COc1ccc(C)cc1", "Potency": "inconclusive: 20.6 µM [cytotoxic, single point]"},
      {"compound": "CC(SCc1ccccc1)C(=O)Nc1ccc(F)cc1", "note": "(stereo unspecified)", "Potency": "inactive"},
      {"compound": "Cc1onc(-c2ccccc2)c1C(=O)OCC(=O)N1CCN(c2ccccc2)CC1", "Potency": "inconclusive: 29.1 µM [cytotoxic, single point]"},
      {"compound": "COC(=O)c1[nH]c2ccc(Br)cc2c1NC(=O)C(C)N1CCN(C2CCCCC2)CC1", "note": "(stereo unspecified)", "Potency": "inconclusive: 29.1 µM [cytotoxic, single point]"},
      {"compound": "S=c1nc(NCCc2ccccc2Cl)c2ccccc2[nH]1", "Potency": "inconclusive: 18.4 µM [cytotoxic, single point]"},
      {"compound": "COc1cccc(CN2C(=O)C(C)N(C(=O)c3c(F)cccc3F)c3ccccc32)c1", "note": "(stereo unspecified)", "Potency": "inconclusive: 20.6 µM [cytotoxic, single point]"},
      {"compound": "O=C(c1ccc(Cn2cc(Cl)cn2)cc1)N1CCN(c2ccccc2)CC1", "Potency": "inconclusive: 29.1 µM [cytotoxic, single point]"},
      {"compound": "COc1ccc(OCC(=O)OCc2cc(=O)n3cc(C)sc3n2)cc1", "Potency": "inactive"},
      {"compound": "O=C(NCc1ccco1)c1cccc(-c2nnc(-c3ccccc3)o2)c1", "Potency": "inconclusive: 18.4 µM [cytotoxic, single point]"},
      {"compound": "CC(C)(C)n1ncc2c(=O)n(Cc3ccc(Cl)cc3Cl)cnc21", "Potency": "inconclusive: 16.4 µM [cytotoxic, single point]"},
      {"compound": "NC(=S)N=Nc1c(O)n(CCCl)c2ccccc12", "Potency": "inconclusive: 29.1 µM [cytotoxic, partial curve, poor fit]"},
      {"compound": "Cn1c(=O)c2c([nH]c(OCc3ccc(Cl)cc3Cl)[n+]2Cc2ccc(F)cc2)n(C)c1=O", "Potency": "inactive"},
      {"compound": "CN(C)S(=O)(=O)c1cccc(NC(=O)c2cc(-c3cccs3)nn2-c2cccc(Cl)c2)c1", "Potency": "active: 9.2 µM"},
      {"compound": "NC(=O)c1ccc(C(F)(F)F)n(Cc2ccc(Cl)cc2)c1=O", "Potency": "inconclusive: 20.6 µM [cytotoxic, single point]"},
      {"compound": "O=C(O)CCCCCN1C(=O)/C(=C\\c2ccncc2)SC1=S", "Potency": "inconclusive: 29.1 µM [cytotoxic, single point]"},
      {"compound": "CCOC(=O)C1CCN(C(=O)CCS(=O)(=O)c2cc3c(cc2Cl)NC(=O)CO3)CC1", "Potency": "inconclusive: 146 µM [cytotoxic, full curve, poor fit]"},
      {"compound": "CCc1cc(C(=O)Nc2cc(S(=O)(=O)N3CCCCC3)ccc2N2CCN(C)CC2)sc1C", "Potency": "active: 23.1 µM"},
      {"compound": "COc1ccccc1CCNC(=O)c1c(N)[nH]c(C(=O)c2ccccc2)c1-c1ccc(Br)cc1", "Potency": "inconclusive: 29.1 µM [cytotoxic, single point]"},
      {"compound": "COc1ccc(NC(=O)CSc2nc(-c3ccc(OC)cc3)[nH]c2-c2ccc(OC)cc2)cc1", "Potency": "inactive"},
      {"compound": "CN1Cc2c(N3CCOCC3)nc(SCc3ccccc3)c(C#N)c2CC1(C)C", "Potency": "inconclusive: 10.3 µM [cytotoxic, partial curve, poor fit]"},
      {"compound": "COc1ccc(CNC(=O)Nc2nc(C(N)Cc3ccc(F)cc3)cs2)cc1", "note": "(stereo unspecified)", "Potency": "inconclusive: 29.1 µM [cytotoxic, single point]"},
      {"compound": "CN(C)S(=O)(=O)c1ccc(Cl)c(C(=O)Nc2nc3ccccc3[nH]2)c1", "Potency": "inactive"},
      {"compound": "Cc1ccc(/C=N/NC(=O)CN2CCN(Cc3ccccc3Cl)CC2)o1", "Potency": "inconclusive: 16.4 µM [rising, single point]"},
      {"compound": "CCN(CC(=O)Nc1c(F)cccc1F)C(=O)Cc1n[nH]c(=O)c2ccccc12", "Potency": "inconclusive: 11.6 µM [rising, partial curve, poor fit]"},
      {"compound": "COc1cc(Cl)c(C)cc1NC(=O)c1sc2nc3n(c(=O)c2c1C)CCCCC3", "Potency": "inactive"},
      {"compound": "O=C(Nc1ccc(S(=O)(=O)N2CCCC2)cc1)c1ccc(F)cc1", "Potency": "inactive"},
      {"compound": "Nc1ncc(-c2nnnn2-c2ccc(Cl)cc2)c(-c2ccc(Cl)cc2)n1", "Potency": "active: 5.17 µM"},
      {"compound": "Cc1ccccc1NC(=O)COc1ccc(Br)cc1C", "Potency": "inconclusive: 18.4 µM [cytotoxic, single point]"},
      {"compound": "Cc1cccc(NC(=O)c2ccc(S(=O)(=O)N3CCCC3)cc2)c1C", "Potency": "inconclusive: 18.4 µM [rising, single point]"},
      {"compound": "CN(c1cccc(Cl)c1)S(=O)(=O)c1cccc(C(=O)Nc2nc3ccccc3[nH]2)c1", "Potency": "active: 14.6 µM"},
      {"compound": "COc1cc2c(cc1NC(=O)CSCC(=O)O)oc1ccccc12", "Potency": "inactive"},
      {"compound": "CC(=O)Nc1ccc(S(=O)(=O)N2CCSc3ccccc32)cc1", "Potency": "active: 5.8 µM"},
      {"compound": "CCCCOC(=O)CSc1nnc(-c2cc(OC)c(OC)c(OC)c2)o1", "Potency": "inactive"},
      {"compound": "CCN(CC)C(=O)Cn1c(=O)n(Cc2ccc(C(=O)NCc3ccccc3Cl)cc2)c(=O)c2ccccc21", "activity change, negative = cytotoxic": "inconclusive: 4.99%"},
      {"compound": "CCOC(=O)C1=CCN(S(=O)(=O)c2ccc(Cl)cc2)C1c1ccccc1", "note": "(stereo unspecified)", "Potency": "inconclusive: 25.9 µM [cytotoxic, single point]"},
      {"compound": "CCc1ccc(C2c3[nH]c4ccccc4c3CCN2C(=O)c2ccc(=O)n(C)n2)cc1", "note": "(stereo unspecified)", "Potency": "inconclusive: 29.1 µM [cytotoxic, single point]"},
      {"compound": "COc1ccc(CN2CCN(S(=O)(=O)c3ccc(NC(C)=O)cc3)CC2)cc1", "Potency": "inconclusive: 18.4 µM [cytotoxic, partial curve, poor fit]"},
      {"compound": "CCOC(=O)c1c(C)oc2ccc(NS(=O)(=O)c3ccc4c5c(cccc35)C(=O)N4)cc12", "Potency": "inconclusive: 29.1 µM [cytotoxic, single point]"},
      {"compound": "CC(C)(C)NC(=O)NC(=O)CN1CCN(c2ccc(O)cc2)CC1", "Potency": "active: 20.6 µM"},
      {"compound": "CCc1cc2c(=O)n(Cc3ccco3)c(SCc3c(C)noc3C)nc2s1", "Potency": "active: 5.8 µM"},
      {"compound": "CCOC(=O)N1CCN(C(=O)CSCC(=O)Nc2nc(-c3ccc(-c4ccccc4)cc3)cs2)CC1", "Potency": "inconclusive: 16.4 µM [cytotoxic, partial curve, poor fit]"},
      {"compound": "Cc1[nH]c(C)c(C(=O)/C=C/c2ccc([N+](=O)[O-])cc2)c1C", "Potency": "inconclusive: 29.1 µM [cytotoxic, single point]"},
      {"compound": "O=C(Nc1nnc(-c2ccncc2)o1)c1ccc2ccccc2c1", "Potency": "inconclusive: 20.6 µM [cytotoxic, single point]"},
      {"compound": "CC(C)C[C@H]1CNC(=S)N1CC1CCN(CC2CCC(C(C)(C)C)CC2)CC1", "note": "(stereo partly specified)", "Potency": "inactive"},
      {"compound": "Cc1ccc(C(=O)N2CCCC(C(=O)c3ccc(Cl)cc3C)C2)cn1", "note": "(stereo unspecified)", "Potency": "inconclusive: 25.9 µM [cytotoxic, partial curve, poor fit]"}
    ]}
  ]
}
